Laboratory results from PMC4655416.
Results are given in words; binding and its absence hold for the method and conditions named.

Target: protein phosphatase 5 from C. elegans (PPH-5) (C. elegans) (UniProt Q9NES8)
Assay: SAXS; in-house SAXS of CeHsp90, PPH-5 and their mixtures at 2:1 and 2:2 (CeHsp90 monomer:PPH-5); 0.8 to 6.3 mg/ml; mass from the Porod volume; both purified

B1: protein phosphatase 5 from C. elegans (PPH-5) (enzyme, UniProt Q9NES8 1-496)
chain: MAATITDDIVATVLESIEEKSYEDEKEKAGMIKDEANQFFKDQVYDVAADLYSVAIEIHPTAVLYGNRAQAYLKKELYGSALEDADNAIAIDPSYVKGFYRRATANMALGRFKKALTDYQAVVKVCPNDKDARAKFDECSKIVRRQKFEAAISTDHDKKTVAETLDINAMAIEDSYDGPRLEDKITKEFVLQLIKTFKNQQKLHKKYAFKMLLEFYNYVKSLPTMVEITVPTGKKFTICGDVHGQFYDLCNIFEINGYPSETNPYLFNGDFVDRGSFSVETIFTMIGFKLLYPNHFFMSRGNHESDVMNKMYGFEGEVKAKYTQQMCDMFTETFCWLPLCHLINEKIFVCHGGLFKEDGVTLEDIRKTDRNRQPPDEGIMCDLLWSDPQPINGRSPSKRGVGCQFGPDVTSKWCETNGIEYVVRSHEVKPEGYEMHHNGQCFTVFSAPNYCDQMNNKGAFITITGDNLTPRFTPFDAVPHPKLPPMAYANSLFGFN
In the case of B1, the binding is reported as “no binding”.
